Experimental data reported in paper PMC3471868.
No constants are given. Whether binding was seen depends on the method and setting. Binding seen in cells or lysates may run through a third protein. Some results given as binding are weak or reduced against the parent protein; the word gives no strength. Where a sequence is shown, tags or fusion partners need not be part of it.

The chains behind the UniProt entries cited, without tags or fusion partners.
UniProt P45973: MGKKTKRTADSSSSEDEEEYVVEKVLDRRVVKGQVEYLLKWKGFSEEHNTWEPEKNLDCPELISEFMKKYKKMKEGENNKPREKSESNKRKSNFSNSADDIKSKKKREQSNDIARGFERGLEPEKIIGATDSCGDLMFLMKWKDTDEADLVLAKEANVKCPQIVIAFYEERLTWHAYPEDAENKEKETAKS
UniProt P83916: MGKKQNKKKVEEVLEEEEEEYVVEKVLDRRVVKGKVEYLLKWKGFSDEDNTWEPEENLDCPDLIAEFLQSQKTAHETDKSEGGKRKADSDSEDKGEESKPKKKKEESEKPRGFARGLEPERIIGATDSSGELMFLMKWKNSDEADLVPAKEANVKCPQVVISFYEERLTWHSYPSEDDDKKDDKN
UniProt Q13185: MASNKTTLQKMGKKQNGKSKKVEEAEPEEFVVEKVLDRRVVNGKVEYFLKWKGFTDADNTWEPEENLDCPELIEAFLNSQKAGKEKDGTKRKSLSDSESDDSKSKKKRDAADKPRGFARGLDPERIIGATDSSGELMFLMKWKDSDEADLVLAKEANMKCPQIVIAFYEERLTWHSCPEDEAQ

target: T1, GST-N’-RNF123, wild-type N-terminal segment of RNF123 (residues 59 to 326) (UniProt Q5XPI4); experiment: pull-down; GST or GST-N’-RNF123 (wild type or V313D) on glutathione agarose beads, incubated with pre-cleared HeLa lysate (50 mM Tris-Cl pH 7.5, 150 mM NaCl, 10% glycerol, 0.5% NP-40) for 12 h at 4°C; bound proteins detected by western blot with antibodies to HP1 proteins; only the target purified
T1 sequence: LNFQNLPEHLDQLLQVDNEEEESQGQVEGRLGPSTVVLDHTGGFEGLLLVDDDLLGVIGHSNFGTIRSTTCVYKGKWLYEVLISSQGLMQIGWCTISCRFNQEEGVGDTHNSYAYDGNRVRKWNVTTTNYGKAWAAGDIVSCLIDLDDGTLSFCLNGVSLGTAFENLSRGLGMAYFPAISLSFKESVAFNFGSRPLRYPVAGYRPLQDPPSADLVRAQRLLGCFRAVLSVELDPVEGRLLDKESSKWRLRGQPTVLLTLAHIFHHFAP

binding, binds:
heterochromatin protein 1α (from UniProt P45973 1-191)
heterochromatin protein 1β (from UniProt P83916 1-185)
heterochromatin protein 1γ (from UniProt Q13185 1-183)
